Reference: article PMC9995463
No constants are given. Whether binding was seen depends on the method and setting. For some assays here: In cells and extracts the contact can be indirect. Some binding calls cover weakened binding; strength is not graded here.

Experiments:
[1] = biological target: claudin-10b wildtype (human) (UniProt P78369); assay: FRET or BRET; acceptor-photobleaching FRET in live HEK293 cells co-transfected with EYFP- and ECFP-tagged claudin-10b; read as cis interaction; HEPES-buffered bath solution pH 7.4, 37 °C
[2] = biological target: claudin-10b wildtype (human) (UniProt P78369); assay: contact enrichment assay (live cell imaging); fluorescence at contacts of two claudin-expressing HEK293 cells against their contacts with non-expressing cells; enrichment factor >1 counted positive; read as trans interaction; HEPES-buffered bath solution pH 7.4, 37 °C

binding [1]: binds
binding [2]: binds
B1: claudin-10b wildtype (protein, UniProt P78369-1 1-228)
chain: MASTASEIIAFMVSISGWVLVSSTLPTDYWKVSTIDGTVITTATYWANLWKACVTDSTGVSNCKDFPSMLALDGYIQACRGLMIAAVSLGFFGSIFALFGMKCTKVGGSDKAKAKIACLAGIVFILSGLCSMTGCSLYANKITTEFFDPLFVEQKYELGAALFIGWAGASLCIIGGVIFCFSISDNNKTPRYTYNGATSVMSSRTKYHGGEDFKTTNPSKQFDKNAYV
